Laboratory results from PMC7862700.
Only a part is listed here, and it is no random draw. At the low end of the ranking, values are background and their order means little.

Protein sequences, listed by entry. Tags and fused reporters are not part of them. Lines headed by an entry give the natural chain unless they say otherwise; changes in a name come on top.
UniProt Q01892: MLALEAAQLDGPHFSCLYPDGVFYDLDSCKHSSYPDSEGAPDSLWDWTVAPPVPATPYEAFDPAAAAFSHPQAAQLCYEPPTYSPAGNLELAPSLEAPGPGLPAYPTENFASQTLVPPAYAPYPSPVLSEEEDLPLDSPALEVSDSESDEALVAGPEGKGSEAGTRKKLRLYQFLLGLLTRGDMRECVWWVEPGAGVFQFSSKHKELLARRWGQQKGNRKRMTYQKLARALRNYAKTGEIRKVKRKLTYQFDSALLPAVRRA
UniProt P41161: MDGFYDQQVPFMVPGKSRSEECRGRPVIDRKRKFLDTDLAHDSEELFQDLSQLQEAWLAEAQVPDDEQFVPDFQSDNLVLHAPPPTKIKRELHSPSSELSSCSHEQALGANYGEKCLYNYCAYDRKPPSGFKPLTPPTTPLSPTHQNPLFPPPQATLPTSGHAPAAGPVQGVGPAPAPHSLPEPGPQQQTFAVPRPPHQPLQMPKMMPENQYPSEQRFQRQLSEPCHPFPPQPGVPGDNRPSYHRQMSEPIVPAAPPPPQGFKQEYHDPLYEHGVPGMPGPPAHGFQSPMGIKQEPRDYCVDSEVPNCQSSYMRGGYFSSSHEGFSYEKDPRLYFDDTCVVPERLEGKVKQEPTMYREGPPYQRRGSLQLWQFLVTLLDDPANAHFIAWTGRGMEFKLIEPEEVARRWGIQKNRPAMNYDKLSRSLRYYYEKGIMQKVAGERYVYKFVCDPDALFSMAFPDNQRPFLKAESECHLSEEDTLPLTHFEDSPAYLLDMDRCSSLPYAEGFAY
UniProt Q99607: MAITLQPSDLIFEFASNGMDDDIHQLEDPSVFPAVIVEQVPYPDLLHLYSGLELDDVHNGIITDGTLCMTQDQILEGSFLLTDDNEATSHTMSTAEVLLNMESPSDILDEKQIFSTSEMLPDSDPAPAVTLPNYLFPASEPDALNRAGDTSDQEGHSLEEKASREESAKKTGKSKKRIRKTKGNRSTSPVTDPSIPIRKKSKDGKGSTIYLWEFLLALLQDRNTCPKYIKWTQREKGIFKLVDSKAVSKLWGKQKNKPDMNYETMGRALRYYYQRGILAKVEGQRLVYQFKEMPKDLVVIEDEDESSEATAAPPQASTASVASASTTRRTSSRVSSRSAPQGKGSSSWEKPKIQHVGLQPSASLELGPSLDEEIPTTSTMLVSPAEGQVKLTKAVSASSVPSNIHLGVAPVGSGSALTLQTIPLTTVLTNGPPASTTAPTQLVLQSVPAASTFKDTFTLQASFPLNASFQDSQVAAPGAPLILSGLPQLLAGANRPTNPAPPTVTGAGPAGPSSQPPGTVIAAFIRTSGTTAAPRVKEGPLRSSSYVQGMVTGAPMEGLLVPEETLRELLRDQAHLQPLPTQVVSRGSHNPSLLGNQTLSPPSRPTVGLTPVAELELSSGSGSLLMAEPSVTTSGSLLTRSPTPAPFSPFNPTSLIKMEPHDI

Assays:
Assay in all cases: DAPPL (digital affinity profiling via proximity ligation, sequencing)
Conditions in all cases: 10 mM Tris-HCl pH 7.5, 50 mM NaCl, 1 mM DTT, 4% glycerol, room temperature, 30 min; GST-TFs on glutathione beads, 16-mer random dsDNA library, 0.1% …; high values mean tight binding; double strand, one strand shown; scale: fold enrichment (6-mer frequency, TF over GST control)
FLI1 = biological target: T1, FLI1 (UniProt Q01543)
T1 sequence: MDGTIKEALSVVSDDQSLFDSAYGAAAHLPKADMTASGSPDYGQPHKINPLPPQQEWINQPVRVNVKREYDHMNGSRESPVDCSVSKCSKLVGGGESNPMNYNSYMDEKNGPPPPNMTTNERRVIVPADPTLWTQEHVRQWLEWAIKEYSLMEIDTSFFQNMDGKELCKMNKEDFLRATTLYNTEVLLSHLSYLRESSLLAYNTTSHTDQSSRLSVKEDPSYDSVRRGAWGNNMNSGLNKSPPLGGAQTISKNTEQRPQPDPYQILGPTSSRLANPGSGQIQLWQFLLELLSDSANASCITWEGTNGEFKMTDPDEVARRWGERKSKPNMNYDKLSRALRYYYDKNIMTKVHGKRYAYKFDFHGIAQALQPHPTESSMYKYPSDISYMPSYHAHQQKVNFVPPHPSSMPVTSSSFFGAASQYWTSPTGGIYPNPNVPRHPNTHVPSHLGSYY

EHF = biological target: T2, EHF (UniProt Q9NZC4)
T2 sequence: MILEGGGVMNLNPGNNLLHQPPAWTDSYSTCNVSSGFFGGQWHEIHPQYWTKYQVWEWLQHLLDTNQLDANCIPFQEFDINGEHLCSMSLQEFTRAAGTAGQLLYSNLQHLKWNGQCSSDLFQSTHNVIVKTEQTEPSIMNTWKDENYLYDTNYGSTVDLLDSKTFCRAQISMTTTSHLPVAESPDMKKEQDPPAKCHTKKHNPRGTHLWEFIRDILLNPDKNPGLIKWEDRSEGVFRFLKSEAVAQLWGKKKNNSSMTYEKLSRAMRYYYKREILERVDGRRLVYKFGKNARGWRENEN

SPIB = SPIB (UniProt Q01892)
ETV5 = ETV5 (UniProt P41161)
ELF4 = ELF4 (UniProt Q99607)
ETV2 = biological target: T3, ETV2 (UniProt O00321)
T3 sequence: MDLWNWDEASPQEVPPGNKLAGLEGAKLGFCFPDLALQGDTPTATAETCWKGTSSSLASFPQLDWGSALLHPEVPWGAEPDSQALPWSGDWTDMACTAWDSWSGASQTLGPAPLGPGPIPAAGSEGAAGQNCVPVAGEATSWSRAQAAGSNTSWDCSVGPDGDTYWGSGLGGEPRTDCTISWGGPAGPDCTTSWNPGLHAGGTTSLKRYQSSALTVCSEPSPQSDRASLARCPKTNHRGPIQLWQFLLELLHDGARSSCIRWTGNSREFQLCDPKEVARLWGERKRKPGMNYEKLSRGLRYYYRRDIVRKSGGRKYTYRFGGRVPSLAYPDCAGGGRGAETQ

ETV3L = biological target: T4, ETV3L (UniProt Q6ZN32)
T4 sequence: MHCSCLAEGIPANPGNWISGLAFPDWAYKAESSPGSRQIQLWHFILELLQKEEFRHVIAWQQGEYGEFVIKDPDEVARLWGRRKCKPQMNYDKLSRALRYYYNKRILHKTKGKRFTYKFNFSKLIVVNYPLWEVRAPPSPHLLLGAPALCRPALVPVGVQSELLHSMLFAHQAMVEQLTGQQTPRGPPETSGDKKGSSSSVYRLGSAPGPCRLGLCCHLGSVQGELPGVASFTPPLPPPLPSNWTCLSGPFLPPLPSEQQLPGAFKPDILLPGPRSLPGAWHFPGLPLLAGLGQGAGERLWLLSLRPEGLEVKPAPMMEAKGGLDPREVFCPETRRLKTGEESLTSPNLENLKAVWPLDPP

Sequence | binding signal (FLI1) | binding signal (EHF) | binding signal (SPIB) | binding signal (ETV5) | binding signal (ELF4) | binding signal (ETV2) | binding signal (ETV3L)
CTTGAG | 1.08 | 0.943 | 0.906 | 0.948 | 0.979 | 0.978 | 0.887
TCATAG | 0.926 | 0.793 | 0.979 | 0.889 | 0.887 | 0.921 | 0.922
CGAAGG | 0.911 |  | 0.966 | 1.05 | 0.916 | 0.857 | 0.994
TAAGGA | 0.902 | 0.962 | 0.879 | 0.903 | 0.859 | 0.831 | 0.888
AGATGT | 0.964 | 0.904 | 0.869 | 0.929 | 0.916 | 0.887 | 1
GGCTGC | 0.984 |  | 0.915 | 0.981 | 0.967 | 0.904 | 0.968
GTGGAA | 0.911 | 0.972 | 0.983 | 0.936 | 0.881 | 0.952 | 0.959
GTGTTG | 0.953 | 0.94 | 0.856 | 0.883 | 0.879 | 0.977 | 0.988
GGGATT | 0.847 | 0.862 | 0.811 | 0.901 | 0.862 | 0.859 | 0.919
TGGGAC | 0.995 | 0.886 | 0.89 | 0.985 | 0.935 | 1.14 | 0.912
GAAAGT | 0.827 | 0.822 | 0.846 | 0.863 | 0.828 | 0.812 | 0.846
GGCACC | 0.802 | 0.736 | 0.744 | 0.761 | 0.819 | 0.754 | 0.782
AGTTAC | 0.945 |  | 0.922 | 1.05 | 0.95 | 0.826 | 0.859
ACAAGG | 0.951 |  | 0.926 | 0.944 | 0.926 | 0.923 | 0.964
GGATTC | 0.893 | 0.935 | 0.875 | 0.936 | 0.966 | 0.82 | 

In another format: entries from further up
Sequence	binding signal (FLI1)	binding signal (EHF)	binding signal (SPIB)	binding signal (ETV5)	binding signal (ELF4)	binding signal (ETV2)	binding signal (ETV3L)
GTGGAA	0.911	0.972	0.983	0.936	0.881	0.952	0.959
GTGTTG	0.953	0.94	0.856	0.883	0.879	0.977	0.988
GGGATT	0.847	0.862	0.811	0.901	0.862	0.859	0.919
TGGGAC	0.995	0.886	0.89	0.985	0.935	1.14	0.912
